Results taken from patent publication US20230235001A1.
Results are given in words; binding and its absence hold for the method and conditions named. In cells and extracts the contact can be indirect. Some results given as binding are weak or reduced against the parent protein; the word gives no strength. Tags and fused reporters may be left off the sequences shown.

Chains of the proteins cited; added tags and fusions are not shown. Lines headed by an entry give the natural chain unless they say otherwise; changes in a name come on top. A line that says so, or that is headed by a name, gives the form on record, which may keep a tag or linker.
HA-tagged BMPR2-E376K mutant (bone morphogenetic protein type 2 receptor, glutamic acid 376 mutated to lysine) (Q13873, form named): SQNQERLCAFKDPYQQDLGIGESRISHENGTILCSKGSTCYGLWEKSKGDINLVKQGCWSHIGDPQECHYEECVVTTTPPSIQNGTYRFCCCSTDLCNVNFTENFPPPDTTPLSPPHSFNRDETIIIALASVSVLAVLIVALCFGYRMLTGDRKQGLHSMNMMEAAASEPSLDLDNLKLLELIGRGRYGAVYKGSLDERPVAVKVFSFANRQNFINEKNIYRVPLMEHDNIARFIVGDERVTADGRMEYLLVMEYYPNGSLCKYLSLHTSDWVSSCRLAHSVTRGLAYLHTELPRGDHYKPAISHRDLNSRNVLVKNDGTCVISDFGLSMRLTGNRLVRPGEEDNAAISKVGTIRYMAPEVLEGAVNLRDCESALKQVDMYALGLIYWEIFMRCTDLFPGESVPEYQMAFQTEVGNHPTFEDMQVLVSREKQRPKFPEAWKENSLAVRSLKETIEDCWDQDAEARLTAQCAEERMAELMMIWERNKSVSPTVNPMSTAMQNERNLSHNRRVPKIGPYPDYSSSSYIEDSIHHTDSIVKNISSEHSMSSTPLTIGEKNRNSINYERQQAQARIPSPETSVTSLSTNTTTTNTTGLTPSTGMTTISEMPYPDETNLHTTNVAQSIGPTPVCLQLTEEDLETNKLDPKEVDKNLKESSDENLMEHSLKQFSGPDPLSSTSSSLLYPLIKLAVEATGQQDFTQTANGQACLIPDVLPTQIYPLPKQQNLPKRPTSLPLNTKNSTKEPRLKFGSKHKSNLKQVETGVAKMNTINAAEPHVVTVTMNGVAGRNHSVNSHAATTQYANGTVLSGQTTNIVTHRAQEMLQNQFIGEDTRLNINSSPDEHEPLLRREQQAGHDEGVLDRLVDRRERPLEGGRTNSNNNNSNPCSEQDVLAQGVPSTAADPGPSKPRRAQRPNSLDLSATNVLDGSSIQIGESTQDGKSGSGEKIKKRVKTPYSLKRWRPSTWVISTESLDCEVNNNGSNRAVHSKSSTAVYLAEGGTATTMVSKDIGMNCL

Experiments:
[1] = target: T1, V5-tagged wild-type ACVR1 (activin A type I receptor) (UniProt Q04771); assay: co-immunoprecipitation (FIG. 3a), no BMP ligand
T1 sequence (looked up): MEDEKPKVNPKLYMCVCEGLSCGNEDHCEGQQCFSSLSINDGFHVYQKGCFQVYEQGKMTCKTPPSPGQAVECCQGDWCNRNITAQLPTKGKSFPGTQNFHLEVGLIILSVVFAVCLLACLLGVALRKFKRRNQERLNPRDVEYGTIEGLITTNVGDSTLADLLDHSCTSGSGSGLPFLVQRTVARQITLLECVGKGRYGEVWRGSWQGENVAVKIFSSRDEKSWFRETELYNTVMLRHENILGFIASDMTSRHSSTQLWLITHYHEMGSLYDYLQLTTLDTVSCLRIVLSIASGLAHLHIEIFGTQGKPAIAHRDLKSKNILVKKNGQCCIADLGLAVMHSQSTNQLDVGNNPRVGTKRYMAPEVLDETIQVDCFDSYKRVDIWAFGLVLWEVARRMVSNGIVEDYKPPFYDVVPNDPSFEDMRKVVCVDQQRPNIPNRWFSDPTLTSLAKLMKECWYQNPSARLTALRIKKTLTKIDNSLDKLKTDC

[2] = target: T1, V5-tagged wild-type ACVR1 (activin A type I receptor); assay: co-immunoprecipitation, figure legend of FIG. 3a
[3] = target: T1, V5-tagged wild-type ACVR1 (activin A type I receptor); assay: co-immunoprecipitation (anti-HA agarose, western blot) from transfected HEK293T cells, no BMP ligand

binding [1]: binds
binding [2]: binds
binding [3]: binds
Substance: HA-tagged BMPR2-E376K mutant (bone morphogenetic protein type 2 receptor, glutamic acid 376 mutated to lysine) (from UniProt Q13873 27-1038)
